The values below come from the supplement of paper PMC10727501.

Holding throughout (details): 10 µM; pre-incubation: 30-90 min
The subject of test [1] is Danio rerio larvae (5 dpf, TLF). The test is described as follows: OMR-Perf (SSMD vs DMSO vehicle); higher = higher than vehicle (e.g. higher dark-flash O-bend response probability, or better optomotor performance).
For test [2] the test system is unchanged. As to the kind of experiment: Prob-Test (SSMD vs DMSO vehicle); higher = higher than vehicle (e.g. higher dark-flash O-bend response probability, or better optomotor performance).
Test [3] has the same test system. The test is described as follows: Prob-Naive (SSMD vs DMSO vehicle); higher = higher than vehicle (e.g. higher dark-flash O-bend response probability, or better optomotor performance).
Test [4] shares this test system. As to the kind of experiment: Prob-Train (SSMD vs DMSO vehicle); higher = higher than vehicle (e.g. higher dark-flash O-bend response probability, or better optomotor performance).

Counter-ions that a name gives are not always drawn. Some of the results follow. Single values are uncertain here, since repeats match poorly.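 Researchers measured free-swimming zebrafish larvae's O-bend response probability to dark flashes (naive: first five; training: remaining flashes of four 60-flash blocks; test: later 60-flash block) and OMR turning toward alternating leftward/rightward LED motion. Six treated larvae were compared to sixty 0.1% DMSO controls, with |SSMD|≥2 marking a hit.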

`CCCNCC(O)COc1ccccc1C(=O)CCc1ccccc1` (stereo unspecified) [Propafenone HCl] displayed an OMR-Perf in test [1] of -0.217. The compound also came in with a Prob-Test in test [2] of 1.16. In test [3], this compound displayed a Prob-Naive of 0.42. Also, the Prob-Train in test [4] was 0.885.
In test [1], `COc1ccc(-c2cc(=O)c3c(O)cc(O[C@@H]4O[C@H](CO[C@@H]5O[C@@H](C)[C@@H](O)[C@@H](O)[C@H]5O)[C@@H](O)[C@H](O)[C@H]4O)cc3o2)cc1O` [Diosmin] had an OMR-Perf of -0.531. Also, the Prob-Test in test [2] was -0.245. Also, the Prob-Naive in test [3] is -0.0681. In test [4], this compound came in with a Prob-Train of 0.282.
For `Nc1c2ccccc2nc2ccccc12` [9-Aminoacridine], in that order: 0.252, 0.0935, 0.457 and 0.546.
For `C[C@H](CS)C(=O)N1CCC[C@@H]1C(=O)O` [Captopril], in that order: 0.137, -0.198, -0.423 and -0.458.
For `Nc1cccc(-c2cc3c(Oc4cccc(O)c4)ncnc3[nH]2)c1`, the OMR-Perf in test [1] was -0.759. In addition, in test [2], the Prob-Test was -0.17. In test [3], the Prob-Naive is 0.313. The compound further registered a Prob-Train in test [4] of -0.00494.
For `COc1cc(Nc2ncc(F)c(Nc3ccc4c(n3)NC(=O)C(C)(C)O4)n2)cc(OC)c1OC` [R406 (free base)], the OMR-Perf in test [1] was -0.184. In test [2], this compound came in with a Prob-Test of -0.251. The same compound yielded a Prob-Naive in test [3] of 0.173. In test [4], this compound came in with a Prob-Train of -0.212.
The compound `CCOC(=O)[C@H](CCc1ccccc1)N[C@@H](C)C(=O)N1Cc2cc(OC)c(OC)cc2C[C@H]1C(=O)O.Cl` [Moexipril HCl] yielded an OMR-Perf in test [1] of -0.0369. The Prob-Test in test [2] was -0.347. The Prob-Naive in test [3] was -0.34. The compound also displayed a Prob-Train in test [4] of -0.0365.
With `CC(C)(C)c1nc(-c2cccc(NS(=O)(=O)c3c(F)cccc3F)c2F)c(-c2ccnc(N)n2)s1`, the OMR-Perf in test [1] came out at 0.258. The same compound showed a Prob-Test in test [2] of 0.407. This compound displayed a Prob-Naive in test [3] of 0.319. For the same compound, the Prob-Train in test [4] worked out at 0.273.
For `O=C1NC(=O)C(c2ccccc2)(c2ccccc2)N1` [Phenytoin], in that order: -0.204, -0.215, -0.271 and -0.128.
